Measurements reported in the supplement of paper PMC6078165.
The reference is the same well before dosing, and untreated signal decays as well.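 Fibroblast labels denote human fibroblasts, mainly primary ones from uterus (C12385, HUF), lung (H6013), bone (Hs27A), adrenal (HADF) and skin (WS1), plus mammary HMF and breast cancer-associated Hs343T. Cancer cells are basal-like or mesenchymal-like triple-negative breast cancer lines. A hit is a response shift exceeding 3x replicate standard deviation. The tissue of the other fibroblasts is not given here.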

Tested on: MDAMB436
Assay: relative JC-1 red fluorescence (viability) vs pre-drug, coculture with fibroblast (fraction); higher = more viable cancer cells
Conditions: 10 µM
Protocol: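 JC-1 labelled TNBC cells cocultured 1:1 (1,500 cells each) with CellTrace Violet stained primary or stromal fibroblasts in 384-well plates in FluoroBrite medium, treated with one of 42 anticancer drugs at 0.1, 1, 10 or 100 uM. JC-1 red fluorescence (mitochondrial integrity in cancer cells only) was read by plate reader every 8 h for 72 h. Values are normalised to each well's pre-drug value. The stock of one drug was tenfold lower, so its dose labels may be too high.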

COc1cc([C@@H]2c3cc4c(cc3[C@@H](O[C@@H]3O[C@@H]5CO[C@@H](c6cccs6)O[C@H]5[C@H](O)[C@H]3O)[C@H]3COC(=O)[C@H]23)OCO4)cc(OC)c1O [Teniposide]
relative JC-1 red fluorescence
Conditions | 8 h | 16 h | 24 h | 32 h | 40 h | 48 h | 56 h | 64 h | 72 h
coculture fibroblast: C12385 | 0.817 | 0.792 | 0.7941 | 0.73 | 0.706 | 0.683 | 0.67 | 0.656 | 0.66
coculture fibroblast: H6013 | 0.87 | 0.8586 | 0.86932 | 0.877 | 0.872 | 0.898 | 0.873 | 0.861 | 0.83
coculture fibroblast: H6019 | 0.7842 | 0.769 | 0.77 | 0.718 | 0.699 | 0.696 | 0.69 | 0.683 | 0.685
coculture fibroblast: H6076 | 0.794 | 0.753 | 0.749 | 0.714 | 0.708 | 0.682 | 0.684 | 0.681 | 0.679
coculture fibroblast: H6231 | 0.7148 | 0.647 | 0.691 | 0.613 | 0.605 | 0.575 | 0.582 | 0.565 | 0.559
coculture fibroblast: HADF | 0.8088 | 0.805 | 0.805 | 0.788 | 0.793 | 0.835 | 0.78 | 0.784 | 0.749
coculture fibroblast: HCFa | 0.856 | 0.84225 | 0.837 | 0.845 | 0.861 | 0.899 | 0.853 | 0.862 | 0.823
coculture fibroblast: HCPF | 0.797 | 0.766 | 0.767 | 0.693 | 0.673 | 0.631 | 0.622 | 0.603 | 0.588
coculture fibroblast: HHSteC | 0.8586 | 0.861 | 0.854 | 0.847 | 0.863 | 0.887 | 0.849 | 0.835 | 0.787
coculture fibroblast: HMF | 0.807 | 0.78 | 0.774 | 0.74 | 0.729 | 0.682 | 0.683 | 0.656 | 0.649
coculture fibroblast: HPFa | 0.88 | 0.875 | 0.87 | 0.856 | 0.8652 | 0.8892 | 0.8313 | 0.8241 | 0.777
coculture fibroblast: HUF | 0.848 | 0.8088 | 0.8151 | 0.769 | 0.743 | 0.73 | 0.71 | 0.712 | 0.719
coculture fibroblast: Hs5 | 0.8 | 0.781 | 0.784 | 0.737 | 0.724 | 0.675 | 0.683 | 0.653 | 0.65
coculture fibroblast: Hs27A | 0.872 | 0.8691 | 0.889 | 0.908 | 0.912 | 0.848 | 0.8 | 0.794 | 0.754
coculture fibroblast: Hs343T | 0.819 | 0.784 | 0.771 | 0.73 | 0.699 | 0.665 | 0.647 | 0.634 | 0.643
coculture fibroblast: WS1 | 0.8 | 0.7689 | 0.7582 | 0.7015 | 0.6664 | 0.651 | 0.632 | 0.609 | 0.605
